In PubChem BioAssay AID504444 (National Center for Advancing Translational Sciences (NCATS), 2011):
Values joined by “and” are separate entries in the source; they are usually repeats but may differ in a detail not shown here. Equal values may be shown once. The whole screen tested about 360,000 compounds, of which about 7,500 (2.1%) were called active. The inconclusive results got no clear call from the source; some entries with a clear call stand among them for comparison. Calls follow the shape of the dose curve; as a rule, active = well fitted inhibition curve with a large enough effect; inconclusive = small, poorly fitted or top-dose-only effect, or effect the other way; inactive = flat fitted curve, though single readings scatter. Potencies beside an inconclusive call are fits to weak or partial responses and may not hold up.
Potency is read from the fitted curve at half-maximal effect.

Experiment: Nrf2 qHTS screen for inhibitors; also: nearly all actives have a fitted effect of over 60% in size
Conditions: A549 ARE-Fluc reporter, luciferase luminescence, 18-24 h; series mostly up to 46 µM
Summary of the method: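 Quantitative HTS in A549 cells stably bearing an antioxidant response element-firefly luciferase construct. Inhibition of Nrf2-driven transcription was scored by luminescence after 18-24 h of compound exposure at 37 °C.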
With `C/C(=N\Nc1ccccn1)c1ccc(C(C)C)cc1` the Potency was inconclusive: 23.1 µM [activator, single point]. With `Cc1nc(N2CCOCC2)c2c(C(=O)NCCc3ccccc3)c(C)oc2n1` the Potency was inconclusive: 10.3 µM [activator, partial curve, poor fit]. For `COc1ccc(C(=O)C2CCN(C(=S)NCCc3ccccc3)CC2)cc1`, the Potency was “inactive”. With `CCc1noc(C)c1C(=O)OCC(=O)c1ccc(NC(C)=O)cc1F` the Potency was inconclusive: 29.1 µM [activator, single point]. With `COc1cccc(C(=O)N2c3nc(-c4ccco4)nn3C3(CCCCC3)[C@@H]3CCCC[C@@H]32)c1` the Potency was “inactive”. For `N/C(=N\OC(=O)COc1ccccc1)c1ccc(Cl)cc1`, the Potency was inconclusive: 23.1 µM [activator, single point]. For `CC(CN(C)C)CN1c2ccccc2Sc2ccccc21` (stereo not given), the Potency was “inactive”. In the case of `CCc1nn(C(C)C(=O)N2CCN(c3cccc(C(F)(F)F)c3)CC2)c(=O)c2cc3occc3n12` (stereo not given), the Potency is reported as inconclusive: 20.6 µM [falling, single point]. With `CCCNC(=O)c1c(C)nn(-c2cccc(C)c2)c1-n1cccc1` the Potency was inconclusive: 25.9 µM [activator, single point]. In the case of `O=C(C1CC(=O)N(C2CCCC2)C1)N1CCN(c2cccc(C(F)(F)F)c2)CC1` (stereo not given), the Potency is reported as inconclusive: 16.4 µM [falling, single point]. For `CCN(CC)c1ccc(NC(=O)CCNS(=O)(=O)c2ccc3c(c2)CCC(=O)N3)c(C)c1`, the Potency was inconclusive: 18.4 µM [falling, single point]. In the case of `Cc1cc(C)nc(-n2nc(C)cc2NC(=O)CN2CCCC2)n1`, the Potency is reported as “inactive”. In the case of `CCOC(=O)c1sc2nc(C)nc(NCCc3ccc(S(N)(=O)=O)cc3)c2c1C`, the Potency is reported as inconclusive: 7.31 µM [falling, partial curve, poor fit]. For `CCn1c(SCC(=O)Nc2ccc3c(c2)OCO3)nnc1C1CC1`, the Potency was inconclusive: 18.4 µM [activator, partial curve, poor fit]. For `O=C(NCC(c1cccnc1)N1CCN(c2ccccc2F)CC1)c1ccccc1` (stereo not given), the Potency was inconclusive: 32.6 µM [falling, partial curve, poor fit]. In the case of `O=C1C(c2cc(=O)c3ccccc3[nH]2)=C(O)c2ccccc21`, the Potency is reported as inconclusive: 20.6 µM [activator, partial curve]. With `CCCc1cc(=O)[nH]c(SCC(=O)Nc2ccc(C(=O)Nc3ccccc3OC)cc2)n1` the Potency was “inactive”. In the case of `O=C1NC(=Nc2ccc3ccccc3c2)S/C1=C/c1ccco1`, the Potency is reported as “inactive”. In the case of `N/C(=N\c1nc2ccccc2o1)NC(=O)c1ccccc1Br`, the Potency is reported as inconclusive: 1.84 µM [activator, full curve, poor fit]. With `O=C(Nc1ccc2c(c1)oc1ccccc12)N1CCOCC1` the Potency was inconclusive: 1.46 µM [activator, full curve, poor fit]. With `CCc1ccc(C2c3[nH]c4ccccc4c3CCN2C(=O)CN2CCN(CC)CC2)cc1` (stereo not given) the Potency was “inactive”. For `CCN1CCN(c2sc(S(C)(=O)=O)nc2S(=O)(=O)c2ccc(C)cc2)CC1`, the Potency was inconclusive: 6.51 µM [falling, partial curve, poor fit]. For `COC(=O)c1ccc(C(=O)OC)c(NC(=O)Nc2ccc3c(c2)OCO3)c1`, the Potency was inconclusive: 10.3 µM [activator, partial curve, poor fit]. For `Cc1nn2c(N)c(-c3ccccc3)cnc2c1-c1ccc(Cl)cc1`, the Potency was inconclusive: 10.3 µM [activator, partial curve]. With `Cc1ccc(NC(=O)c2ncn(CCCN3CCN(c4ccccn4)CC3)n2)cc1C` the Potency was inconclusive: 0.326 µM [activator, full curve, poor fit]. With `Cc1ccc(C2=C(O)C(=O)C(c3ccc(C)cc3)=C(O)C2=O)cc1` the Potency was inconclusive: 13 µM [falling, partial curve, poor fit]. With `N#Cc1ccccc1NC(=O)c1ccc2c(Cl)c3c(nc2c1)CCCC3` the Potency was inconclusive: 2.59 µM [activator, partial curve]. In the case of `Cc1ccc2c(c1)c1c(c(=O)n(-c3ccccc3C)c(=O)n1CC(=O)N1CCCC1)n2C`, the Potency is reported as inconclusive: 18.4 µM [activator, partial curve, poor fit]. With `O=C(COC(=O)c1ccc(Cl)c(S(=O)(=O)N2CCCC2)c1)NCc1ccccc1` the Potency was inconclusive: 32.6 µM [activator, single point]. With `O=C(COc1ncnc2cc(Cl)ccc12)c1ccc2c(c1)OCCO2` the Potency was inconclusive: 9.2 µM [activator, partial curve]. For `Cc1nn(-c2ccc(Cl)cc2)c(=O)c2ccccc12`, the Potency was inconclusive: 7.31 µM [activator, partial curve]. In the case of `COc1cc2c(cc1OC)C(COc1ccc(F)cc1)N(C(=O)c1ccco1)CC2` (stereo not given), the Potency is reported as inconclusive: 20.6 µM [falling, partial curve, poor fit]. With `CCS(=O)(=O)Nc1c(C(=O)OC)[nH]c2ccccc12` the Potency was “inactive”. With `CCCc1nnc(NC(=O)CCC(=O)N2CCN(Cc3ccc(Cl)cc3)CC2)s1` the Potency was active: 14.6 µM. In the case of `COC(=O)CN1C(=O)[C@@H]2[C@H](C1=O)[C@@H]1CC(C(=O)OC)=C[C@@H](C(=O)OC)C3C1=C(C(=O)[C@@]3(C)NC(=O)c1ccccc1)[C@@H]2C` (stereo not given in full), the Potency is reported as “inactive”. In the case of `O=C1CCCC(O)=C1C=NCc1ccccc1`, the Potency is reported as “inactive”. In the case of `Cc1ccc(NC(=O)c2sc(N)nc2C)cc1`, the Potency is reported as inconclusive: 5.8 µM [activator, partial curve]. With `CN(C)c1ccc(N=Nc2ccccc2C(=O)OCC(=O)N2CCCC2)cc1` the Potency was inconclusive: 29.1 µM [activator, single point]. With `Cc1ccc(N2C(=O)CC(Sc3nc4ccccc4o3)C2=O)cc1Cl` (stereo not given) the Potency was inconclusive: 13 µM [activator, partial curve, poor fit]. With `Cc1ccc(Cn2cc(C(=O)c3ccc(F)cc3)c(=O)c3cc4c(cc32)OCCO4)cc1` the Potency was inconclusive: 20.6 µM [falling, single point] and inconclusive: 29.1 µM [falling, single point]. In the case of `CCc1ccccc1NC(=O)CSCc1cnn(-c2ccccc2)c1-n1cccc1`, the Potency is reported as inconclusive: 29.1 µM [falling, single point]. With `O=C(COC(=O)c1cccc(-n2cnnn2)c1)c1ccc(F)cc1` the Potency was inconclusive: 9.2 µM [activator, partial curve]. In the case of `CCCn1c(SCc2nc3ccccc3s2)n[nH]c1=O`, the Potency is reported as inconclusive: 20.6 µM [activator, partial curve]. For `O=C(Nc1nc(-c2ccccc2)cs1)c1cccc([N+](=O)[O-])c1`, the Potency was active: 8.2 µM. For `COc1ccc(S(=O)(=O)Nc2cc3c4c(oc3c3ccccc23)CC(C)(C)CC4=O)cc1`, the Potency was inconclusive: 23.1 µM [falling, single point]. In the case of `Cc1cc(-c2ccc(C)c(S(=O)(=O)NC3CCCCC3)c2)on1`, the Potency is reported as “inactive”. For `Cc1ccc2oc(-c3cccc(NC(=O)Cc4cccs4)c3)nc2c1`, the Potency was inconclusive: 16.4 µM [falling, single point]. In the case of `O=C(Nc1cccc(S(=O)(=O)N2CCCC2)c1)c1cc(-c2ccccn2)nc2ccccc12`, the Potency is reported as active: 9.2 µM. For `O=C1C2C3C=CC(C3)C2C(=O)N1c1ccc(N2CCN(c3ccccn3)CC2)c([N+](=O)[O-])c1` (stereo not given), the Potency was inconclusive: 29.1 µM [falling, single point]. For `CSCCC(NC(=O)C1CCC(C)CC1)C(=O)O` (stereo not given), the Potency was inconclusive: 0.146 µM [falling, partial curve, poor fit]. With `CCOc1ccc(C(=O)Nc2nc(C)c(C(=O)OC)s2)cc1` the Potency was inconclusive: 1.84 µM [activator, full curve]. For `CCCCc1nnc(NC(=O)c2oc3ccc(OC)cc3c2C)s1`, the Potency was “inactive”. For `O=C(N/N=C/c1ccc2c(c1)OCO2)c1cc(-c2ccccc2Cl)nc2ccccc12`, the Potency was “inactive”. For `O=C(CN1CCN(C(=O)c2cccc(S(=O)(=O)N3CCCC3)c2)CC1)Nc1ccccc1Cl`, the Potency was inconclusive: 18.4 µM [falling, partial curve, poor fit]. In the case of `CCN(Cc1ccc(OC)c(F)c1)C(=O)/C=C/c1ccc(S(=O)(=O)N2CCOCC2)cc1`, the Potency is reported as inconclusive: 23.1 µM [falling, single point]. With `COc1cccc2cc(C(=O)Nc3ccc(F)c(F)c3)c(=O)oc12` the Potency was inconclusive: 0.82 µM [activator, full curve, poor fit]. For `O=C(Cn1c(=O)n(Cc2cccs2)c(=O)c2cccnc21)Nc1ccc(F)cc1`, the Potency was “inactive”. With `CCC(C(=O)Nc1ccncc1)c1ccccc1` (stereo not given) the Potency was inconclusive: 20.6 µM [falling, single point]. With `COc1ccccc1C1CC(c2ccco2)=NN1c1ccccc1` (stereo not given) the Potency was “inactive”. With `Cc1ccc2nc(-c3ccc(SCC(=O)Nc4nc(C)cs4)nc3)[nH]c2c1` the Potency was inconclusive: 4.11 µM [activator, full curve, poor fit]. In the case of `N#Cc1cccc(C(=O)OCC(=O)NC(=O)NC2CCCCC2)c1`, the Potency is reported as inconclusive: 0.326 µM [falling, full curve, poor fit]. With `CCOc1ccc(NC(=O)Cn2c(=O)n(-c3ccccc3)c(=O)c3ccc(C(=O)NCc4ccc5c(c4)OCO5)cc32)cc1` the Potency was inconclusive: 29.1 µM [falling, single point]. With `O=C(Cc1ccc(Cl)cc1Cl)Nc1cccc(S(=O)(=O)Nc2ccccc2F)c1` the Potency was inconclusive: 1.84 µM [falling, partial curve, poor fit]. With `COc1ccc(-c2cc(C(=O)O)c3sc(N4CCCCC4)nc3n2)cc1OC` the Potency was “inactive”. With `CCC1(CC)NC(=O)N(CC(=O)OCC(=O)NC(=O)c2ccccc2)C1=O` the Potency was inconclusive: 0.0046 µM [falling, full curve, poor fit].
